Consider 34 substances from US20190374627A1, “TARGET PEPTIDES FOR CANCER THERAPY AND DIAGNOSTICS” (priority 2016, published 2019).

Holding throughout (set-up): key: The presence of phosphopeptides in previously analyzed samples including leukemia, colorectal cancer, melanoma, ovarian cancer, breast cancer, and esophageal cancer is indicated by ✓
One series relates to leukemia. As to the kind of experiment: Presence of the phosphopeptide in previously analyzed leukemia samples.
For the next series, the system named is colorectal cancer. As to the kind of experiment: Presence of the phosphopeptide in previously analyzed colorectal cancer samples.
The next series concerns melanoma. As to the kind of experiment: Presence of the phosphopeptide in previously analyzed melanoma samples.

As to “86 (FPRRHSVTL; (6)...(6) The amino acid at this position is optionally phosphorylated; listed as Homo sapiens) [compound 86]”, in the series with leukemia, the Leukemia entry is reported as “✓”. Further, the Colorectal result in the series with colorectal cancer was “✓”. For the same substance, the Melanoma entry with melanoma was “✓”.
“91 (GPRSASLL; (6)...(6) The amino acid at this position is optionally phosphorylated; listed as Homo sapiens) [compound 91]”: in the series on leukemia, the Leukemia result is given as “✓”. Further, the Colorectal result in the series with colorectal cancer is “✓”. The Melanoma entry in the series with melanoma is recorded as “✓”.
With “92 (GPRSASLLSL; (6)...(6) The amino acid at this position is optionally phosphorylated; listed as Homo sapiens) [compound 92]”, in the series with leukemia, the Leukemia entry is given as “✓”. The Colorectal result with colorectal cancer is given as “✓”. In addition, the Melanoma result in the series with melanoma is “✓”.
Regarding “94 (GPRSPKAPP; (4)...(4) The amino acid at this position is optionally phosphorylated; listed as Homo sapiens) [compound 94]”, the Leukemia entry in the series with leukemia is “✓”. In addition, the Colorectal result in the series on colorectal cancer is recorded as “✓”. Moreover, the Melanoma result in the series on melanoma is listed as “✓”.
For the substance “97 (KPASPKFIVTL; (4)...(4) The amino acid at this position is optionally phosphorylated; listed as Homo sapiens) [compound 97]”, in the series on leukemia, the Leukemia result is given as “✓”. In the series on colorectal cancer, the Colorectal entry is listed as “✓”. Further, in the series on melanoma, the Melanoma entry is recorded as “✓”.
For “101 (KPRRFSRSL; (6)...(6) The amino acid at this position is optionally phosphorylated; (8)...(8) The amino acid at this position is optionally phosphorylated; listed as Homo sapiens) [compound 101]”, the Leukemia entry with leukemia was “✓”. Moreover, the Colorectal result with colorectal cancer is reported as “✓”. Moreover, in the series with melanoma, the Melanoma entry was “✓”.
As to “108 (KPVSPKSGTL; (4)...(4) The amino acid at this position is optionally phosphorylated; listed as Homo sapiens) [compound 108]”, the Leukemia result with leukemia is listed as “✓”. Further, the Melanoma entry with melanoma is “✓”.
Regarding “109 (KPYSPLASL; (4)...(4) The amino acid at this position is optionally phosphorylated; listed as Homo sapiens) [compound 109]”, the Leukemia entry in the series on leukemia was “✓”. The Colorectal result in the series with colorectal cancer was “✓”. Further, in the series on melanoma, the Melanoma result is given as “✓”.
For “118 (MPRQPSATRL; (6)...(6) The amino acid at this position is optionally phosphorylated; listed as Homo sapiens) [compound 118]”, the Leukemia result in the series on leukemia is listed as “✓”. In addition, in the series on colorectal cancer, the Colorectal result is given as “✓”. For the same substance, the Melanoma result in the series with melanoma was “✓”.
For “123 (RPAFFSPSL; (6)...(6) The amino acid at this position is optionally phosphorylated; listed as Homo sapiens) [compound 123]”, in the series on leukemia, the Leukemia result is reported as “✓”. For the same substance, the Melanoma result in the series on melanoma is given as “✓”.
Regarding “124 (RPAKSMDSL; (5)...(5) The amino acid at this position is optionally phosphorylated; listed as Homo sapiens) [compound 124]”, in the series on leukemia, the Leukemia entry is recorded as “✓”. For the same substance, the Colorectal entry with colorectal cancer was “✓”. Also, the Melanoma result in the series on melanoma was “✓”.
As to “125 (RPASAGAML; (4)...(4) The amino acid at this position is optionally phosphorylated; listed as Homo sapiens) [compound 125]”, the Leukemia result in the series with leukemia was “✓”. Further, the Colorectal result with colorectal cancer is recorded as “✓”. Moreover, in the series on melanoma, the Melanoma result was “✓”.
For the substance “142 (RPKLSSPAL; (6)...(6) The amino acid at this position is optionally phosphorylated; listed as Homo sapiens) [compound 142]”, in the series on leukemia, the Leukemia entry was “✓”. In addition, in the series with colorectal cancer, the Colorectal entry was “✓”. Moreover, in the series with melanoma, the Melanoma entry is reported as “✓”.
Consider “146 (RPKTPPVVI; (4)...(4) The amino acid at this position is optionally phosphorylated; listed as Homo sapiens) [compound 146]”, for which, in the series with leukemia, the Leukemia entry is listed as “✓”. In the series on colorectal cancer, the Colorectal result is listed as “✓”. Moreover, in the series with melanoma, the Melanoma entry is given as “✓”.
For “151 (RPPSPGPVL; (4)...(4) The amino acid at this position is optionally phosphorylated; listed as Homo sapiens) [compound 151]”, the Leukemia result with leukemia was “✓”. Also, the Melanoma result with melanoma was “✓”.
In the case of “155 (RPRANSGGVDL; (6)...(6) The amino acid at this position is optionally phosphorylated; listed as Homo sapiens) [compound 155]”, the Leukemia entry in the series on leukemia is “✓”. For the same substance, in the series on colorectal cancer, the Colorectal result is “✓”. For the same substance, in the series on melanoma, the Melanoma result is reported as “✓”.
Turning to “160 (RPRIPSPIGF; (6)...(6) The amino acid at this position is optionally phosphorylated; listed as Homo sapiens) [compound 160]”, the Leukemia entry in the series with leukemia is “✓”. Moreover, the Melanoma result in the series on melanoma is “✓”.
For “162 (RPRPHSAPSL; (6)...(6) The amino acid at this position is optionally phosphorylated; listed as Homo sapiens) [compound 162]”, in the series with leukemia, the Leukemia result is on record as “✓”. Further, the Colorectal result in the series on colorectal cancer was “✓”. For the same substance, the Melanoma result with melanoma is listed as “✓”.
In the case of “179 (RPRSPPSSP; (4)...(4) The amino acid at this position is optionally phosphorylated; listed as Homo sapiens) [compound 179]”, the Leukemia result in the series on leukemia is “✓”. Besides, the Melanoma result with melanoma is “✓”.
As to “200 (RPYSPPFFSL; (4)...(4) The amino acid at this position is optionally phosphorylated; listed as Homo sapiens) [compound 200]”, the Leukemia result in the series with leukemia is “✓”. For the same substance, the Melanoma entry with melanoma is reported as “✓”.
For the substance “214 (SPSSPSVRRQL; (4)...(4) The amino acid at this position is optionally phosphorylated; listed as Homo sapiens) [compound 214]”, in the series with leukemia, the Leukemia entry is listed as “✓”. In the series on melanoma, the Melanoma entry was “✓”.
Turning to “220 (VPRSPKHAHSSSL; (4)...(4) The amino acid at this position is optionally phosphorylated; listed as Homo sapiens) [compound 220]”, in the series with leukemia, the Leukemia result was “✓”. The Colorectal entry in the series with colorectal cancer is “✓”.
On to “225 (FRRSPTKSSL; (4)...(4) The amino acid at this position is optionally phosphorylated; listed as Homo sapiens) [compound 225]”, for which the Leukemia result with leukemia was “✓”. The Colorectal entry in the series with colorectal cancer is listed as “✓”.
As for “226 (FRRSPTKSSLD; (4)...(4) The amino acid at this position is optionally phosphorylated; listed as Homo sapiens) [compound 226]”, in the series on leukemia, the Leukemia result was “✓”. Further, in the series on colorectal cancer, the Colorectal entry was “✓”.
Regarding “227 (FRRSPTKSSLDY; (4)...(4) The amino acid at this position is optionally phosphorylated; listed as Homo sapiens) [compound 227]”, the Leukemia result with leukemia is recorded as “✓”. Also, the Colorectal result in the series with colorectal cancer is recorded as “✓”.
In the case of “282 (RRYSPPIQR; (4)...(4) The amino acid at this position is optionally phosphorylated; listed as Homo sapiens) [compound 282]”, in the series with leukemia, the Leukemia entry is on record as “✓”. For the same substance, the Melanoma result in the series with melanoma is given as “✓”.
For “301 (GIMSPLAKK; (4)...(4) The amino acid at this position is optionally phosphorylated; listed as Homo sapiens) [compound 301]”, the Leukemia result in the series with leukemia is recorded as “✓”. The Colorectal entry in the series with colorectal cancer is given as “✓”.
On to “309 (KLRSPFLQK; (4)...(4) The amino acid at this position is optionally phosphorylated; listed as Homo sapiens) [compound 309]”, for which the Leukemia entry in the series with leukemia is recorded as “✓”. For the same substance, the Melanoma entry in the series with melanoma was “✓”.
“312 (KTPTSPLKMK; (5)...(5) The amino acid at this position is optionally phosphorylated; listed as Homo sapiens) [compound 312]”: in the series with leukemia, the Leukemia result is “✓”. Moreover, in the series on melanoma, the Melanoma result is reported as “✓”.
Turning to “328 (RTASPPPPPK; (4)...(4) The amino acid at this position is optionally phosphorylated; listed as Homo sapiens) [compound 328]”, in the series on leukemia, the Leukemia entry is “✓”. Moreover, the Melanoma result in the series on melanoma is “✓”.
As for “342 (EELSPTAKF; (4)...(4) The amino acid at this position is optionally phosphorylated; listed as Homo sapiens) [compound 342]”, in the series on leukemia, the Leukemia result is on record as “✓”. Further, the Colorectal result in the series on colorectal cancer is “✓”.
For “372 (KRASFAKSV; (4)...(4) The amino acid at this position is optionally phosphorylated; listed as Homo sapiens) [compound 372]”, the Leukemia entry with leukemia is “✓”. Also, the Melanoma entry with melanoma was “✓”.
Regarding “384 (RADSPVHM; (4)...(4) The amino acid at this position is optionally phosphorylated; listed as Homo sapiens) [compound 384]”, the Leukemia entry with leukemia is listed as “✓”. Besides, in the series with colorectal cancer, the Colorectal entry is listed as “✓”.
Turning to “431 (RTSSFALNL; (4)...(4) The amino acid at this position is optionally phosphorylated; listed as Homo sapiens) [compound 431]”, the Leukemia result in the series on leukemia was “✓”. For the same substance, the Melanoma result in the series on melanoma is “✓”.
